# The other results are listed elsewhere or left out.
# Amino acid sequences for entries named in this document (tags omitted). A change or cut given only in a name is not applied to a line headed by its entry.
# UniProt Q5JSH3: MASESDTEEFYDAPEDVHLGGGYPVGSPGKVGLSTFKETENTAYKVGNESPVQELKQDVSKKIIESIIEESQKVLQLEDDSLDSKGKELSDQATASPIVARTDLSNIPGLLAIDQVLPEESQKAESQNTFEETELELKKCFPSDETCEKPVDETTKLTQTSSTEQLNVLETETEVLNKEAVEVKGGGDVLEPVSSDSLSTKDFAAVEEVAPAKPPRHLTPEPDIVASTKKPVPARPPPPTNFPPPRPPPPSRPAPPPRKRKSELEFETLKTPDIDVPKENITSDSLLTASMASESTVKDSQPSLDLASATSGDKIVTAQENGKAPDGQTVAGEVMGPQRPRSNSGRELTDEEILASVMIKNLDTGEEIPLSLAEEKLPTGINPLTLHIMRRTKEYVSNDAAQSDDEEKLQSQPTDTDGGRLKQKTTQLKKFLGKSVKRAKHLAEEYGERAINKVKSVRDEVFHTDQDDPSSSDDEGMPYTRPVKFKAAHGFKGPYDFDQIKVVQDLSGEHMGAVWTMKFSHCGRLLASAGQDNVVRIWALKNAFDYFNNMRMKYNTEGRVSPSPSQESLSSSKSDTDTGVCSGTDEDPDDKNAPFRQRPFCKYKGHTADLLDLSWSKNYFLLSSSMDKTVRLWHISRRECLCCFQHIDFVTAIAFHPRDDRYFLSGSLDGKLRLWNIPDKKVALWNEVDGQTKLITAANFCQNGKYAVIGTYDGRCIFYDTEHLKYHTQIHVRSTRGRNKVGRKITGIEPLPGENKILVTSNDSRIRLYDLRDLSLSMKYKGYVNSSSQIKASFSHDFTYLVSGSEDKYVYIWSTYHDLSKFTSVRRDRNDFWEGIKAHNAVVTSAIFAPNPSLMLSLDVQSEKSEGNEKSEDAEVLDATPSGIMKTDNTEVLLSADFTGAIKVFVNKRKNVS
# UniProt P23381: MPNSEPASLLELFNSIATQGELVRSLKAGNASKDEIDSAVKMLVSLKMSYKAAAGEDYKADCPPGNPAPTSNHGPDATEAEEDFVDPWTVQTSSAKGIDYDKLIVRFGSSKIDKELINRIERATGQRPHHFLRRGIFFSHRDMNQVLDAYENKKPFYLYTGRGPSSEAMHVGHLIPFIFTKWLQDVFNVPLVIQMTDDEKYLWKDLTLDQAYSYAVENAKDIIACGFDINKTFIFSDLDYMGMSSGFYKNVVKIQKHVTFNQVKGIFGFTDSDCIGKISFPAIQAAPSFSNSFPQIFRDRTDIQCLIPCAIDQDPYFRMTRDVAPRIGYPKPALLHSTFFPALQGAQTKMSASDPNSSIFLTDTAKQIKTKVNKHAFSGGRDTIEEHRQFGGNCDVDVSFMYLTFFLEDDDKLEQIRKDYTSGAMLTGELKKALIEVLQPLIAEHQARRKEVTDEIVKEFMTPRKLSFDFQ
# UniProt Q709C8: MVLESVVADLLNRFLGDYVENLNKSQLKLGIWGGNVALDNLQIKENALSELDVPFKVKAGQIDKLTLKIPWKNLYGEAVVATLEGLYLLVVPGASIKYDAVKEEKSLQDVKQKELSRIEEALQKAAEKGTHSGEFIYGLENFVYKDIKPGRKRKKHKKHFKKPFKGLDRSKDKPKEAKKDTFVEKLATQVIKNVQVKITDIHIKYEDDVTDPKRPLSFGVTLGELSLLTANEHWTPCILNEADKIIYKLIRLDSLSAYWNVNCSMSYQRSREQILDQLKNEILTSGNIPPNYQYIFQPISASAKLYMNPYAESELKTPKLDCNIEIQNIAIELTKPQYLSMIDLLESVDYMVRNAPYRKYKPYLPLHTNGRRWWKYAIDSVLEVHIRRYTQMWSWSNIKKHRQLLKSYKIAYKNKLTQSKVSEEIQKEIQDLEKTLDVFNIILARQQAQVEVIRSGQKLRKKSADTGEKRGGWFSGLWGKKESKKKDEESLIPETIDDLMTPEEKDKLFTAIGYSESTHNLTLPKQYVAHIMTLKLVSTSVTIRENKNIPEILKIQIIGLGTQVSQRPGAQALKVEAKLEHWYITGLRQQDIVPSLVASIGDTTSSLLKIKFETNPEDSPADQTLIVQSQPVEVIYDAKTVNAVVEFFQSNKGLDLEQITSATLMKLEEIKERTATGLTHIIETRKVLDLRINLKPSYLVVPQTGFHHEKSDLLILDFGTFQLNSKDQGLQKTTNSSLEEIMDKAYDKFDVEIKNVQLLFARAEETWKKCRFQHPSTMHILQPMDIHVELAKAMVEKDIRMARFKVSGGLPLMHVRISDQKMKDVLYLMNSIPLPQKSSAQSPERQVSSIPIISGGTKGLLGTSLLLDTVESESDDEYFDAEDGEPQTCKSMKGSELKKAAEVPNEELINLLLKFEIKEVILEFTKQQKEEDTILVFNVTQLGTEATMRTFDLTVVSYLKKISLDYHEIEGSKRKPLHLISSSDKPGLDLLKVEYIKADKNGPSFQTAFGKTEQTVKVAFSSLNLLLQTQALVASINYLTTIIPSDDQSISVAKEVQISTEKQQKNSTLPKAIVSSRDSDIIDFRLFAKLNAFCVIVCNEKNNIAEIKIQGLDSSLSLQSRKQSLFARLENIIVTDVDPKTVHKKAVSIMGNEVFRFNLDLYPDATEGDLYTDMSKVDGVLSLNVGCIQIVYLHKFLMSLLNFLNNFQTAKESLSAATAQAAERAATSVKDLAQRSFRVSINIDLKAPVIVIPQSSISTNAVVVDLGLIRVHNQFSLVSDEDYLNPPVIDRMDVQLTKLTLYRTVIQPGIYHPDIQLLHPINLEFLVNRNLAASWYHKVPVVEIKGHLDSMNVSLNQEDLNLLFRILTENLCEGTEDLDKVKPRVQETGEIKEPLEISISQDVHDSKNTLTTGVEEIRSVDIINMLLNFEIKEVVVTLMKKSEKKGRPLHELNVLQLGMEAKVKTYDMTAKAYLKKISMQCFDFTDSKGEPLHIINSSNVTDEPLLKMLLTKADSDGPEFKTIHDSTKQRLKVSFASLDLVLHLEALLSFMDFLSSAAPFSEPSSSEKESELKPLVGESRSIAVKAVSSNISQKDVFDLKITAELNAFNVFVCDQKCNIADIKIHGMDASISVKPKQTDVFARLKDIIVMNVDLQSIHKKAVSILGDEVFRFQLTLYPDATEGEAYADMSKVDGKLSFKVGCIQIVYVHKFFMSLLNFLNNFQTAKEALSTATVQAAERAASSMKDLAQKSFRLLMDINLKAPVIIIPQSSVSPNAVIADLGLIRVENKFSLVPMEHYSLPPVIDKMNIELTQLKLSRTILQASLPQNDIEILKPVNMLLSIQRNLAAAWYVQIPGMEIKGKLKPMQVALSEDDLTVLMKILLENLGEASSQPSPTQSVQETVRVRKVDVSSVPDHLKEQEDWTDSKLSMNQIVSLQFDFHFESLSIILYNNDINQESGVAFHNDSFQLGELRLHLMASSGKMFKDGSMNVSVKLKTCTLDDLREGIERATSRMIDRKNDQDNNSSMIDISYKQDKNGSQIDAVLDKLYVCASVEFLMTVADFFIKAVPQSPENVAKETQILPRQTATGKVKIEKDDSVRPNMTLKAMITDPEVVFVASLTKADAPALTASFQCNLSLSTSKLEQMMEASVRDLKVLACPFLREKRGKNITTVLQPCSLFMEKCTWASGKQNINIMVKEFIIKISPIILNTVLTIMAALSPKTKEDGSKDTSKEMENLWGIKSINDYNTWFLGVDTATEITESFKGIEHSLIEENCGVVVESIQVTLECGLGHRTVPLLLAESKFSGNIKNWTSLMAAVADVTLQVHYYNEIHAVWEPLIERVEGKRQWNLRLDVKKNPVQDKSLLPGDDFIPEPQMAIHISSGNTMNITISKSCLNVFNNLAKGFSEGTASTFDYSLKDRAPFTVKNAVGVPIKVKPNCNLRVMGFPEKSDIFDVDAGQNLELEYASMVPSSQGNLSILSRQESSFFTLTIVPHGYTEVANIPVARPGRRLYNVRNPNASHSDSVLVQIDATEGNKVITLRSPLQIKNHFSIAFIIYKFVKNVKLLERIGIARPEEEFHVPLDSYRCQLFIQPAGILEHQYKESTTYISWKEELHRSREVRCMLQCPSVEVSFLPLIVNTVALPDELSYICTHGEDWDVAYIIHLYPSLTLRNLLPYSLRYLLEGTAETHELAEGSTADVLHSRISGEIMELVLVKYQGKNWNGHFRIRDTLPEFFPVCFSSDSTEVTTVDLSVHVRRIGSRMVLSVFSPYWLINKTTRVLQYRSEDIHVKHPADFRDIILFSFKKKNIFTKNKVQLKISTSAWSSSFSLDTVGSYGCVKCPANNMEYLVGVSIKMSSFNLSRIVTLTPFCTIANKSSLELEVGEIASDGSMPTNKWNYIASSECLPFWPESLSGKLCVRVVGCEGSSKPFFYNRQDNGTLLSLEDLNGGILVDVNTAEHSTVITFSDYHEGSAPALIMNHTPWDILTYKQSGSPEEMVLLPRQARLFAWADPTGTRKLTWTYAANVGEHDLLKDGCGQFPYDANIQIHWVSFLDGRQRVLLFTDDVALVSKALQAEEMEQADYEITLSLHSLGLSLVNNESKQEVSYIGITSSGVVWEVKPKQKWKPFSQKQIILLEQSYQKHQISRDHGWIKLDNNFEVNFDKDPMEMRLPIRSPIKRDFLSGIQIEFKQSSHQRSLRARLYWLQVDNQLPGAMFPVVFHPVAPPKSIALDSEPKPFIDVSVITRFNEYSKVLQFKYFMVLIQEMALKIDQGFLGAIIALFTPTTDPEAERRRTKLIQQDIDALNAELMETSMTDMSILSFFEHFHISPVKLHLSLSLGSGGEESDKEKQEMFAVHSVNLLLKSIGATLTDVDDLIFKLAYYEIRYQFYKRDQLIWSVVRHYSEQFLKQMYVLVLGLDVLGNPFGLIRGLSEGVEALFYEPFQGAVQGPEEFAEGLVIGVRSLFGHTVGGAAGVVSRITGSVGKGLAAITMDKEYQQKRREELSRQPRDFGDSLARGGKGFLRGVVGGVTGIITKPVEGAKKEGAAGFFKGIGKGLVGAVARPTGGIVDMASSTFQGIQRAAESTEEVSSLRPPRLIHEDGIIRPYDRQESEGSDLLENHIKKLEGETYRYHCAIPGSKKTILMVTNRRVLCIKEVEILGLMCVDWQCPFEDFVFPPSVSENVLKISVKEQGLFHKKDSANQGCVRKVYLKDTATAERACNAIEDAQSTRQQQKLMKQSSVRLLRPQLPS
# UniProt Q9Y2W2: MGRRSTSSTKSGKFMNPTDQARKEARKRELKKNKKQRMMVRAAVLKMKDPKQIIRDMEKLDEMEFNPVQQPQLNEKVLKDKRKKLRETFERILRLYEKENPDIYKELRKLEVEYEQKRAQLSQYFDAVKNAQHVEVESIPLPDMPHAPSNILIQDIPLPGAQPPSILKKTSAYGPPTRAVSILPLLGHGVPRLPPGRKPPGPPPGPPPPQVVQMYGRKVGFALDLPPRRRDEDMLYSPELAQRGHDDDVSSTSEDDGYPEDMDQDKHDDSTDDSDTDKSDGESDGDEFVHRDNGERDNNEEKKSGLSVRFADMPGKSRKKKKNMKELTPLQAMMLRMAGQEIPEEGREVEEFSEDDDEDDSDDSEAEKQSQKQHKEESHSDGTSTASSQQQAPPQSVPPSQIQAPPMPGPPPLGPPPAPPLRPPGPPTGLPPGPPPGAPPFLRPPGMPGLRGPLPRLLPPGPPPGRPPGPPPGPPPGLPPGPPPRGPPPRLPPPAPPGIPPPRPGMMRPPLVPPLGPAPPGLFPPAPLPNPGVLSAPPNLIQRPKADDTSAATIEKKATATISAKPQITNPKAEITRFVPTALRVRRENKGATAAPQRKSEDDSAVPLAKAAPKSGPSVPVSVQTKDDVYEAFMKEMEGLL
# UniProt Q8TBZ3: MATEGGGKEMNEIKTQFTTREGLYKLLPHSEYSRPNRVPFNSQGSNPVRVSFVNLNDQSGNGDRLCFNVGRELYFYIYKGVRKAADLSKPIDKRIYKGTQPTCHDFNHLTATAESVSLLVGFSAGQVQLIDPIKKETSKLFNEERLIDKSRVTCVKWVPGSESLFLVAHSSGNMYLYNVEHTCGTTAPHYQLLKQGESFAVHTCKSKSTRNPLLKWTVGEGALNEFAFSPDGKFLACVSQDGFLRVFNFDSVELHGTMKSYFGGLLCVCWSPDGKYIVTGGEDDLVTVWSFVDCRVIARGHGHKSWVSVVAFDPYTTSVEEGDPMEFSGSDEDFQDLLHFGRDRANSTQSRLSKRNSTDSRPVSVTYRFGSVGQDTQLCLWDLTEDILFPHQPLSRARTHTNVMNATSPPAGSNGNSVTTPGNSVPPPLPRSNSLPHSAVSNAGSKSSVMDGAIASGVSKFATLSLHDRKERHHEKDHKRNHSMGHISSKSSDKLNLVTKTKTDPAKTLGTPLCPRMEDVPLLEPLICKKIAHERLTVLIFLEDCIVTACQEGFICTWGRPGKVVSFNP
# Compound: C[C@@H](Oc1cc(-c2cnn(C3CCNCC3)c2)cnc1N)c1c(Cl)ccc(F)c1Cl [crizotinib]
# Assay: log2 fold change, soluble protein after heating vs DMSO (PISA); higher = thermal stabilisation; K562 cells, 10 uM, 30 min; active = over 0.2 and 3.5 SD of the protein, either way, in both replicates (recomputed)
# In short: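 K562 cells at 2×10^6 cells/mL were given 10 μM compound for 30 min. Aliquots then went through 3 min of heating across 48°C-58°C, were pooled, and were extracted in PBS with 0.5% NP-40 at 4°C, and the supernatant after 21,000xg for 90 min was quantified by TMTpro 16plex LC-MS/MS with channel sums equalised. Thermal stability relative to control samples, from duplicates, is given as log2 fold change.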
row,Target,log2 fold change
1,WDR61 (UniProt Q9GZS3),inactive: -0.044
2,WDR36 (UniProt Q8NI36),inactive: -0.046
3,WDR44 (UniProt Q5JSH3),inactive: 0.027
4,WDR13 (UniProt Q9H1Z4),inactive: 0.063
5,WASL (UniProt O00401),inactive: -0.054
6,WDR74 (UniProt Q6RFH5),inactive: -0.06
7,WASHC2A (UniProt Q641Q2),active: -0.28
8,WARS (UniProt P23381),inactive: 0.018
9,WASHC4 (UniProt Q2M389),inactive: -0.176
10,WDFY1 (UniProt Q8IWB7),inactive: 0.019
11,VPS13C (UniProt Q709C8),inactive: -0.127
12,WBP11 (UniProt Q9Y2W2),inactive: 0.032
13,WDR45B (UniProt Q5MNZ6),inactive: -0.017
14,VPS35 (UniProt Q96QK1),inactive: -0.09
15,WDR77 (UniProt Q9BQA1),inactive: -0.101
16,WDR5 (UniProt P61964),inactive: -0.006
17,WASF2 (UniProt Q9Y6W5),inactive: -0.033
18,VRK3 (UniProt Q8IV63),inactive: 0.089
19,WDR89 (UniProt Q96FK6),inactive: 0.033
20,WRAP73 (UniProt Q9P2S5),inactive: -0.045
21,VDAC3 (UniProt Q9Y277),inactive: 0.065
22,WDR6 (UniProt Q9NNW5),inactive: -0.035
23,WDR20 isoform 7 (UniProt Q8TBZ3),inactive: 0.063
24,WIPF3 (UniProt A6NGB9),inactive: -0.13

# Rewritten tab-delimited: entries from further up
row	Target	log2 fold change
15	WDR77 (UniProt Q9BQA1)	inactive: -0.101
16	WDR5 (UniProt P61964)	inactive: -0.006
17	WASF2 (UniProt Q9Y6W5)	inactive: -0.033
18	VRK3 (UniProt Q8IV63)	inactive: 0.089
19	WDR89 (UniProt Q96FK6)	inactive: 0.033
20	WRAP73 (UniProt Q9P2S5)	inactive: -0.045
21	VDAC3 (UniProt Q9Y277)	inactive: 0.065
